# Experimental data reported in PubChem BioAssay AID504847 (National Center for Advancing Translational Sciences (NCATS), 2011).
# Amino acid sequences for entries named in this document (tags omitted).
# UniProt P11473, whole entry, looked up: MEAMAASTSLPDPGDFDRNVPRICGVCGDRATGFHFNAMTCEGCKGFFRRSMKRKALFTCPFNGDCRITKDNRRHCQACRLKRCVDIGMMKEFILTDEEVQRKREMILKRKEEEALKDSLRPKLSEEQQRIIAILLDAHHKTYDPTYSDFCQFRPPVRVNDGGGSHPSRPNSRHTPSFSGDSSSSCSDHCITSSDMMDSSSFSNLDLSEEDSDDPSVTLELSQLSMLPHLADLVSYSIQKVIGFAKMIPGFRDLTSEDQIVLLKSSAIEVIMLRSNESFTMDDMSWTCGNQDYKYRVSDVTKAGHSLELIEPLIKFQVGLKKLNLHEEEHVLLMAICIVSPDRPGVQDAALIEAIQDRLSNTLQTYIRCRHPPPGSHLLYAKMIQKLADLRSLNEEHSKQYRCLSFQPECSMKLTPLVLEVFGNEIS
# Values joined by “and” are separate entries in the source; they are usually repeats but may differ in a detail not shown here. Equal values may be shown once. Screen size: about 400,000 compounds; about 3,700 (0.93%) were called active. Inconclusive results, whose numbers are uncertain, are shown with a selection of clear calls. Calls come from the whole dose curve; as a rule, active = well fitted inhibition curve with a large enough effect; inconclusive = small, poorly fitted or top-dose-only effect, or another doubt; inactive = no such curve, though single readings can be large or run the other way. Where the call is inconclusive, the potency comes from a doubtful curve fit.
# Target: Vitamin D3 receptor (Homo sapiens) (UniProt P11473)
# Assay: Inhibitors of the vitamin D receptor (VDR): qHTS
# Settings: VDR-SRC2-3 peptide fluorescence polarization, 2 h; max response, negative = inhibition: hits give low values
# In short: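 The screen uses fluorescence polarization to detect compounds that interfere with recruitment of the SRC2-3 coactivator peptide to VDR; plates are read after 2 h at room temperature.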
# % is set by controls: 0 for no effect and ±100 for the full control effect; potency is the fitted concentration of half-maximal effect.
SMILES,"max response, negative = inhibition",Potency
O=C(Cc1ccc(Cl)c(Cl)c1)Nc1ccccc1N1CCOCC1,inactive: 1.39%,
O=C(COC(=O)c1ccc(S(=O)(=O)N2CCCC2)cc1)Nc1ccc(N2CCOCC2)cc1,,"inconclusive: 39.8 µM [inhibitor, single point]"
C=CCN=c1scc(-c2ccc(F)cc2)n1/N=C/c1ccccn1,inactive: -4.79%,
COc1ccc(NC(=O)c2cc(S(=O)(=O)N3CCCCC3)ccc2OC)cc1,inactive: 1.18%,
COc1cccc(-c2cncnc2N(C)Cc2ccco2)c1,,"inconclusive: 50.1 µM [inhibitor, partial curve]"
Oc1ccc2ccccc2c1C=Nc1ccc(N2CCOCC2)cc1,inactive: -13.9%,
CC(=O)Nc1ccc(SCC(=O)NNC(=O)CN(C)S(=O)(=O)c2ccc(C)cc2)cc1,inactive: -9.14%,
CCC(CN(C)C)Oc1cc(NCc2ccccc2)c2ncn(C(C)C)c2c1 (stereo unspecified),,"inconclusive: 56.2 µM [inhibitor, partial curve, poor fit]"
COc1ccc(C(=O)/C=C/c2ccccc2)c(O)c1,,"inconclusive: 44.7 µM [inhibitor, partial curve]"
Cc1cccc(-c2nc(CN3CCN(C(=O)C4CCCO4)CC3)cs2)c1 (stereo unspecified),inactive: -10.3%,
CCOC(=O)C1(CCc2ccccc2)CCN(Cc2ccc(C(=O)OC)cc2)CC1,,"inconclusive: 63.1 µM [inhibitor, partial curve, poor fit]"
Cc1ccc(CNC(=O)c2cc3c(=O)n(C)c4ccccc4c3n2C)o1,,"inconclusive: 6.31 µM [inhibitor, partial curve, poor fit]"
CCN1CCN(C(=S)c2ccc(O)cc2)CC1,,active: 79.4 µM
COc1cccc(C2CC(=O)Nc3cc4c(cc32)OCCO4)c1OC (stereo unspecified),inactive: -17.3%,
Fc1cc(F)c(C2SCCN2C(=S)Nc2cccc(C(F)(F)F)c2)c(F)c1 (stereo unspecified),inactive: 4.14%,
C=CC1=C(C(=O)O)N2C(=O)[C@@H](NC(=O)/C(=N\OCC(=O)O)c3csc(N)n3)[C@@H]2SC1,,"inconclusive: 28.2 µM [inhibitor, partial curve]"
Cc1cccc(C(=O)NNC(=O)c2ccc(NC(=O)C(C)(C)C)cc2)c1,,"inconclusive: 50.1 µM [inhibitor, partial curve, poor fit]"
COC(=O)c1sc(=S)n(-c2cccc(Cl)c2)c1N,,"inconclusive: 25.1 µM [inhibitor, single point]"
O=C(/C=C/c1ccc(Cl)cc1Cl)Nc1cccc(S(=O)(=O)NC2=NCCC2)c1,,"inconclusive: 12.6 µM [inhibitor, partial curve, poor fit]"
Cc1cc(C)c(/C([O-])=C(/C(=S)Nc2ccc(SC(F)F)cc2)[n+]2ccccc2)cc1C,inactive: -1.28%,
CN(C)CC1CCC/C(=C\c2ccc(OC(=O)/C=C/c3ccc(Cl)c(Cl)c3)cc2)C1=O (stereo unspecified),,"inconclusive: 89.1 µM [inhibitor, single point]"
CCCc1[nH]nc2c1C(c1ccsc1)C(C#N)=C(N)O2 (stereo unspecified),inactive: -25.8%,
CCC(=O)Nc1ccc(NC(=O)CSc2nc3cc4c(cc3cc2C)CCC4)cc1,inactive: -3.17%,
Cc1ccc(COc2cccc3c2CCN(Cc2ccc(F)cc2)C3=O)cc1,,"inconclusive: 89.1 µM [inhibitor, partial curve, poor fit]"

SMILES,"max response, negative = inhibition",Potency
O=C(Oc1cccc([N+](=O)[O-])c1)c1ccc2c(=O)n3c(nc2c1)CCC3,,"inconclusive: 31.6 µM [inhibitor, single point]"
COC(=O)C1=C(C(=O)OC)C(c2ccccc2O)c2sc(=O)[nH]c2S1 (stereo unspecified),,active: 20 µM
CC1(CCc2ccccc2)NC(=O)N(CC(=O)O)C1=O (stereo unspecified),,"inconclusive: 28.2 µM [inhibitor, single point]"
C=C[C@]1(C)Cc2occ(C)c2C[C@H]1C(=C)C(=O)O,,"inconclusive: 44.7 µM [inhibitor, partial curve, poor fit]"
COc1ccccc1/C=C/C(=O)c1ccc(NC(C)=O)cc1,,"inconclusive: 89.1 µM [inhibitor, single point]"
CC(Oc1ccccc1)C(=O)Nc1ccc(S(=O)(=O)N2CCN(C)CC2)cc1 (stereo unspecified),inactive: -25.2%,
O=C(NC(=S)Nc1nc(-c2ccccc2)cs1)c1cccnc1,inactive: 9.69%,
COc1ccc(C(=O)OCC2CC(c3ccccc3)=NO2)cc1OC (stereo unspecified),,"inconclusive: 35.5 µM [inhibitor, partial curve, poor fit]"
CN(CC(=O)NC(=O)NCc1ccccc1)Cc1cccc(Cl)c1Cl,,"inconclusive: 8.91 µM [inhibitor, full curve]"
COc1cc(/C=N/NC(N)=O)ccc1OCC(=O)N1C(C)CCCC1C (stereo unspecified),inactive: -16.8%,
Cc1ccc2c(c1)C(=O)C(=O)N2CC1COc2ccccc2O1 (stereo unspecified),,active: 70.8 µM
CC(C)CN=C(NS(=O)(=O)c1ccccc1)C(Cl)(Cl)Cl,,"inconclusive: 79.4 µM [inhibitor, partial curve]"
Oc1ccc(N=Cc2ccc(-c3cccs3)s2)cc1,,active: 79.4 µM
O=C(CNCCC1=CCCCC1)Nc1ccccc1N1CCCCC1,,"inconclusive: 89.1 µM [inhibitor, partial curve]"
C=CCOc1ccc(/C=N/Nc2ccccn2)cc1OC,,"inconclusive: 79.4 µM [inhibitor, single point]"
Cc1cc(Cl)ccc1OCC(=O)Nc1ccc2oc(=O)ccc2c1,,"inconclusive: 89.1 µM [inhibitor, single point]"
CCOC(=O)N1CCN(C(=O)C2CCN(Cc3ccc(O)c(OCC)c3)CC2)CC1,inactive: -11.5%,
CN1C(=O)CC(=O)N(C)c2cc(S(=O)(=O)N(C)Cc3ccccc3)ccc21,,"inconclusive: 89.1 µM [inhibitor, single point]"
CC(=O)C1=C(c2ccc(Br)cc2)C(=O)c2ccccc2C1=O,,active: 25.1 µM
Cc1c(Cl)cccc1NS(=O)(=O)c1ccc2[nH]cc(C(=O)NC3CCCC3)c(=O)c2c1,inactive: -2.28%,
O=C(COC(=O)c1ccccc1C(=O)c1ccccc1)NCc1ccc(F)cc1,,"inconclusive: 89.1 µM [inhibitor, single point]"
CCCCCCSC1=C(C#N)C(=O)NC2(CCCCC2)S1,,"inconclusive: 56.2 µM [inhibitor, partial curve, poor fit]"
CC(C(=O)O)n1c(-c2ccn[nH]2)n[nH]c1=S (stereo unspecified),,"inconclusive: 12.6 µM [inhibitor, partial curve, poor fit]"
NC/C=C\C(=O)O,inactive: -3.76% and inactive: 6.02%,

SMILES,"max response, negative = inhibition",Potency
Cc1ccccc1-c1n[nH]c(=S)n1/N=C/C=C/c1ccco1,,active: 70.8 µM
COC/C=C/C1=CC2=CC(=O)C(C)(OC(=O)c3cnc4ccccc4n3)C(=O)C2=CN1CCOC (stereo unspecified),inactive: -7.4%,
S=c1[nH]c(-c2ccccc2)cs1,,"inconclusive: 89.1 µM [inhibitor, partial curve]"
CCCOC(=O)c1c(NC(=O)C2CCCO2)sc(C(=O)OC)c1C (stereo unspecified),,active: 79.4 µM
C=CCn1c(Cc2cccs2)nnc1SCC(=O)c1ccc(F)cc1,,"inconclusive: 50.1 µM [inhibitor, partial curve]"
Cc1cccc(-n2c(SCC(=O)Nc3cccc(S(=O)(=O)NC4=NCCCCC4)c3)nc3ccccc3c2=O)c1C,,"inconclusive: 89.1 µM [inhibitor, single point]"
CCC(=O)N1N=C(c2ccc(C)o2)CC1c1ccc(OC)cc1 (stereo unspecified),inactive: 13.4%,
COn1c(C)c(C)c2c3nonc3ccc21,,"inconclusive: 50.1 µM [inhibitor, partial curve]"
CN(C)C(=O)c1ccc(-c2cncnc2NCc2cccs2)cc1,,"inconclusive: 56.2 µM [inhibitor, partial curve]"
CCC(CC)NCc1ccc2c(c1)c1ccccc1n2CC,,"inconclusive: 39.8 µM [inhibitor, partial curve, poor fit]"
O=C(c1ccc2c(=O)n3c(nc2c1)CCCCC3)N1CCN(c2ccc(Cl)cc2)CC1,inactive: 3.62%,
Cc1cc(C)c(S(=O)(=O)c2ccccc2C(=O)O)c(C)c1,,"inconclusive: 89.1 µM [inhibitor, single point]"
O=C1C=CC(=O)N1,,active: 39.8 µM
CC(=NNC(=S)Nc1cccc(C)c1)c1ccccn1,,"inconclusive: 89.1 µM [inhibitor, single point]"
C/C(=N/Nc1cc(-c2ccccc2)nc(-c2ccccc2)n1)c1ccc(O)cc1,inactive: -13.9%,
Cc1cc(C)c(-c2csc(Cc3nc(-c4cc5ccccc5oc4=O)cs3)n2)cc1C,,"inconclusive: 31.6 µM [inhibitor, full curve]"
CN1CCc2c(sc(NC(=O)c3ccco3)c2C(N)=O)C1,inactive: -8.19%,
COc1ccc(/C=C/C(=O)c2cccs2)c(OC)c1,,active: 11.2 µM
O=S(=O)(NN1CCOCC1)c1ccc(Br)s1,,"inconclusive: 20 µM [inhibitor, full curve]"
c1cc(-c2nsc(-c3ccncc3)n2)ccn1,,"inconclusive: 79.4 µM [inhibitor, partial curve, poor fit]"
CC(=O)c1c(N2CCN(c3ccc(F)cc3)CC2)nc(=S)n(-c2ccccc2)c1C,,"inconclusive: 89.1 µM [inhibitor, single point]"
c1ccc(CNc2ncnc3ccc(-c4cccnc4)cc23)cc1,,active: 28.2 µM
COc1ccc(C(=O)N2CCN(S(=O)(=O)c3cc(Cl)ccc3OC)CC2)cc1,,"inconclusive: 39.8 µM [inhibitor, partial curve, poor fit]"

# Some values from the list.
# S=c1[nH]c(-c2ccccc2)cs1 | Potency: inconclusive: 89.1 µM [inhibitor, partial curve]
# Cc1ccccc1-c1n[nH]c(=S)n1/N=C/C=C/c1ccco1 | Potency: active: 70.8 µM
# CCC(=O)N1N=C(c2ccc(C)o2)CC1c1ccc(OC)cc1 (stereo unspecified) | max response, negative = inhibition: inactive: 13.4%
# c1cc(-c2nsc(-c3ccncc3)n2)ccn1 | Potency: inconclusive: 79.4 µM [inhibitor, partial curve, poor fit]
# COC/C=C/C1=CC2=CC(=O)C(C)(OC(=O)c3cnc4ccccc4n3)C(=O)C2=CN1CCOC (stereo unspecified) | max response, negative = inhibition: inactive: -7.4%
# CCCOC(=O)c1c(NC(=O)C2CCCO2)sc(C(=O)OC)c1C (stereo unspecified) | Potency: active: 79.4 µM
